Test results reported in the supplement of paper PMC12823440, “Inhibitors supercharge kinase turnover through native proteolytic circuits” (Nature, 2025).
Where a name gives a salt, the structure may show the parent alone. This is one part of the list. The calls rarely recur for the same compound in another form.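 In K562 cells expressing nanoluciferase-fused kinases, luminescence was recorded at 4 h intervals between 2 and 18 h, normalized as percent of control with DMSO at 100% and a positive control at 0%. A significant (2 sigma) signal drop marks a time point as decreased. The authors' rule for a hit is not shown and takes in more than the number of time points.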

Sequences of proteins named here, by UniProt entry; tags and fusion partners are left off. A change or cut given only in a name is not applied to a line headed by its entry.
UniProt Q06187: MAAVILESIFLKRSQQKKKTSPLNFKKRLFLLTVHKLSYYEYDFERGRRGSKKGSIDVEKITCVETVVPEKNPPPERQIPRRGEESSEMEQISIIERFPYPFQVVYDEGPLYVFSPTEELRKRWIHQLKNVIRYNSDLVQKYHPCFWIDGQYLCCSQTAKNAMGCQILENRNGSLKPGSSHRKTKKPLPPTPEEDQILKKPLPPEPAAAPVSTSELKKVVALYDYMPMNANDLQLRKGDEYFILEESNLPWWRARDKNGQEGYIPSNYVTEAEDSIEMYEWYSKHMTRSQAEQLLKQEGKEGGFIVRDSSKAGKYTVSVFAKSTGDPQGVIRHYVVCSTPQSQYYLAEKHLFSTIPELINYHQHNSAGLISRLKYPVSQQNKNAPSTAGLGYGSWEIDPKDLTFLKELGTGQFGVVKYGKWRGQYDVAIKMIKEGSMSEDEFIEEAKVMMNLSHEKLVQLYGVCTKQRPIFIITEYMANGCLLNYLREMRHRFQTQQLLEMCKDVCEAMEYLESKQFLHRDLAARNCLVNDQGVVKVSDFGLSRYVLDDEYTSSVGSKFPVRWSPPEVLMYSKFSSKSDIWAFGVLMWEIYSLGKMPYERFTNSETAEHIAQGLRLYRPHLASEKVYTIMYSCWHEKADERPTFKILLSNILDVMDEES
UniProt Q15131: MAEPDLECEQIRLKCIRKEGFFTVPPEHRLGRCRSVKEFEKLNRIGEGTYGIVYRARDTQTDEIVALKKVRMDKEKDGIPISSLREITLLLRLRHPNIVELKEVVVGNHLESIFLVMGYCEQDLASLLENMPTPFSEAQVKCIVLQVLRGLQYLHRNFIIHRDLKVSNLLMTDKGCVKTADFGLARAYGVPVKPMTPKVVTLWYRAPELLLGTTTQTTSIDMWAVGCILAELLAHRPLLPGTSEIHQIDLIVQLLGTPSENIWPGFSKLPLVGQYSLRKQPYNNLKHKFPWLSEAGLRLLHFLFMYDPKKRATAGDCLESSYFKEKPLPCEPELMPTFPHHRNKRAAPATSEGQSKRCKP
UniProt P11802: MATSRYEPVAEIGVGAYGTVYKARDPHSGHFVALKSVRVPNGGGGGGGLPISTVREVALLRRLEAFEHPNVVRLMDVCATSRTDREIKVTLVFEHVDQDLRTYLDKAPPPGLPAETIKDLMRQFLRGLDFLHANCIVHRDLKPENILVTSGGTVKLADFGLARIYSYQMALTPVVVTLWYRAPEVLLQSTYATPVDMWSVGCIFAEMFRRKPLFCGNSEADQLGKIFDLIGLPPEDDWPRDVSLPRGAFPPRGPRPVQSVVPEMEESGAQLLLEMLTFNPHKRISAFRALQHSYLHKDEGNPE
UniProt Q00535, whole entry, looked up: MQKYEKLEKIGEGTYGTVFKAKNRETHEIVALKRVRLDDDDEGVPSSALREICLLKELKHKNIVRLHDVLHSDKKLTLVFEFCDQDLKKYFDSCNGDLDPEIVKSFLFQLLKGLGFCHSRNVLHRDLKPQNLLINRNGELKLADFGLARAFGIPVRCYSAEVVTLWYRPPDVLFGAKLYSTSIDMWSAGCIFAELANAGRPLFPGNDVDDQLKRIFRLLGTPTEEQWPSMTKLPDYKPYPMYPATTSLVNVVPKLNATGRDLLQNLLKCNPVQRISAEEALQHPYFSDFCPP
UniProt Q00534, whole entry: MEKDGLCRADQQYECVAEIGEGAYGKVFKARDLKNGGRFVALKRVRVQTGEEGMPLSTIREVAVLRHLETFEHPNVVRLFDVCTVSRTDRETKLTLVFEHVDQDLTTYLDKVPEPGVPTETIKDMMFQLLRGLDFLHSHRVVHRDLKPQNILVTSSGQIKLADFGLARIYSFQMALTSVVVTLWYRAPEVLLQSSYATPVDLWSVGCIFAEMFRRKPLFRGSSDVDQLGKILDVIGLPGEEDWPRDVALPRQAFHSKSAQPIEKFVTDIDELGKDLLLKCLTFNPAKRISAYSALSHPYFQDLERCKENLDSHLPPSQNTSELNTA
UniProt P50613: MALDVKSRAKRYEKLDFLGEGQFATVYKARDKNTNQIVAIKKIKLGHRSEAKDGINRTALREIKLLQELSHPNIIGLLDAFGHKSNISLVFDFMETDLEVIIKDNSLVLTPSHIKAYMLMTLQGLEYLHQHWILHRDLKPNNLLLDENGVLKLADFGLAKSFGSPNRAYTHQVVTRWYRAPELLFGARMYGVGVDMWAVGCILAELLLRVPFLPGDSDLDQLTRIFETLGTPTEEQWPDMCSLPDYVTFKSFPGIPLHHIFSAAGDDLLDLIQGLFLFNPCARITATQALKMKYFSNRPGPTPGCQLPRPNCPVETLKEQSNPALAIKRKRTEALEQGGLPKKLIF
UniProt O96017, whole entry: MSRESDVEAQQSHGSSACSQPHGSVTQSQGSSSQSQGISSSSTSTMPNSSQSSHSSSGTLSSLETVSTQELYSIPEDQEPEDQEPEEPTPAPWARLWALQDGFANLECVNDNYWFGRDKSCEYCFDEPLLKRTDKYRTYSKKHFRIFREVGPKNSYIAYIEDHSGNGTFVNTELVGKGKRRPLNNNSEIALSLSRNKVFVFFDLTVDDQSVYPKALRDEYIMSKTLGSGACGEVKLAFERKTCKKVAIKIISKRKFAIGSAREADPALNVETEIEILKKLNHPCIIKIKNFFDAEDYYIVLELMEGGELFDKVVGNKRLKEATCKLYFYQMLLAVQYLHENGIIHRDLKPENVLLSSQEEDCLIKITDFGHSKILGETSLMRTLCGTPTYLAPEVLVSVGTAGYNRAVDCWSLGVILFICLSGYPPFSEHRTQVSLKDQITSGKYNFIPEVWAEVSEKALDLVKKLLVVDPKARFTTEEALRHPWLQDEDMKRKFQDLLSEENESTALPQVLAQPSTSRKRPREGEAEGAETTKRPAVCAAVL
UniProt P07333, whole entry: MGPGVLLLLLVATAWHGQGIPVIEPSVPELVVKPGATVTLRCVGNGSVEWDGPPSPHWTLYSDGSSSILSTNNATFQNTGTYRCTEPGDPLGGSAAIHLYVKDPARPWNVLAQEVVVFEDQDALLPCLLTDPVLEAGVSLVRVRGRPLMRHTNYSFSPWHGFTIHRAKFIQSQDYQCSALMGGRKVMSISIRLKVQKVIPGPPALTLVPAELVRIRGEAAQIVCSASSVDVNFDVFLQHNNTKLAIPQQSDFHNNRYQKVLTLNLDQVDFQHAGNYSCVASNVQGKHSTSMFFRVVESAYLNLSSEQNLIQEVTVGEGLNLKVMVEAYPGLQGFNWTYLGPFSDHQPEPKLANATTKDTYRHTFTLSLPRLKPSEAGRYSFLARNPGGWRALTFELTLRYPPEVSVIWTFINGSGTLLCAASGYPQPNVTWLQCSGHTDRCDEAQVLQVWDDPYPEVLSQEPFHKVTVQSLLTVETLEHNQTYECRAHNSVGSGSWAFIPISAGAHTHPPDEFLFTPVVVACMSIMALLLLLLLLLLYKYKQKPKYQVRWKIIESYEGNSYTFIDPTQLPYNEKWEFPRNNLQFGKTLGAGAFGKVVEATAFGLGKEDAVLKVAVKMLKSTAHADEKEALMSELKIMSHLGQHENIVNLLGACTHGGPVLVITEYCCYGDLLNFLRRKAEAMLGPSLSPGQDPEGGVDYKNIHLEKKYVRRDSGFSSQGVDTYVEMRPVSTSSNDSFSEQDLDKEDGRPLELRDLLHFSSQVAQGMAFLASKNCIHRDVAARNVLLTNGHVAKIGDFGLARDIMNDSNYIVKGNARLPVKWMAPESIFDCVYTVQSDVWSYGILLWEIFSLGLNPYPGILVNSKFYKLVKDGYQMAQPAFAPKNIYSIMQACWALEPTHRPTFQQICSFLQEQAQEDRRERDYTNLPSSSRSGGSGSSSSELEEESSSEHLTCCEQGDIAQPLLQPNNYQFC
UniProt P41240: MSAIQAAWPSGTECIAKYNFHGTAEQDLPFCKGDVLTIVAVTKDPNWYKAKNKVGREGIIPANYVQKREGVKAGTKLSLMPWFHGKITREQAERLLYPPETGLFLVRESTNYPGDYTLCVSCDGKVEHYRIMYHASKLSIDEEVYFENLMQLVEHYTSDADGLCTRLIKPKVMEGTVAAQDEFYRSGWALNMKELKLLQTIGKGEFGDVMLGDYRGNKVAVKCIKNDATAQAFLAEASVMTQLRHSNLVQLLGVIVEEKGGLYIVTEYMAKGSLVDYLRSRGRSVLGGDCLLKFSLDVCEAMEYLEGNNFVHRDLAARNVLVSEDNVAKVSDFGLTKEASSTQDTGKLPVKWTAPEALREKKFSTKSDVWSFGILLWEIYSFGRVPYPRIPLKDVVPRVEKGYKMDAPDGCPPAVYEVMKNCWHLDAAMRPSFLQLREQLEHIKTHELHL
UniProt P48729: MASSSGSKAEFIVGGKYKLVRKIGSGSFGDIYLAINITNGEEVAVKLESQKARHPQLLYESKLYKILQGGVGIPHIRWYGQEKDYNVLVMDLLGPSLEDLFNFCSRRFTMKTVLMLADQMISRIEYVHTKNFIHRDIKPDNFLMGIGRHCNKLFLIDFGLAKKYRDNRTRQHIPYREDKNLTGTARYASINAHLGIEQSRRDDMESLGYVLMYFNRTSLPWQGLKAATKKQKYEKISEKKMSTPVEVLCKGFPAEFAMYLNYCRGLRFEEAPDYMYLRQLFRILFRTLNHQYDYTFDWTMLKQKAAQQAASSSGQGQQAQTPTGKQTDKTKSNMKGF
UniProt P48730: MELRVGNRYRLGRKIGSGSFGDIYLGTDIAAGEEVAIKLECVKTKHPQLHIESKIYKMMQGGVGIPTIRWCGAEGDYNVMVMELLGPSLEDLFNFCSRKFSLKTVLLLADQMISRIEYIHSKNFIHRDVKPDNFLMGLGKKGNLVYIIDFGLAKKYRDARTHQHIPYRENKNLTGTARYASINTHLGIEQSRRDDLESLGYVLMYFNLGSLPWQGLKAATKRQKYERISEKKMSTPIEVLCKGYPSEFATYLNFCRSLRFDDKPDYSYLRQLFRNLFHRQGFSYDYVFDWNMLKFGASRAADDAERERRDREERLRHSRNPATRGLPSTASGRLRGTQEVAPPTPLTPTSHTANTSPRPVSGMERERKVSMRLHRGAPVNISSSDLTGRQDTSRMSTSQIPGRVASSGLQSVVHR
UniProt Q08345: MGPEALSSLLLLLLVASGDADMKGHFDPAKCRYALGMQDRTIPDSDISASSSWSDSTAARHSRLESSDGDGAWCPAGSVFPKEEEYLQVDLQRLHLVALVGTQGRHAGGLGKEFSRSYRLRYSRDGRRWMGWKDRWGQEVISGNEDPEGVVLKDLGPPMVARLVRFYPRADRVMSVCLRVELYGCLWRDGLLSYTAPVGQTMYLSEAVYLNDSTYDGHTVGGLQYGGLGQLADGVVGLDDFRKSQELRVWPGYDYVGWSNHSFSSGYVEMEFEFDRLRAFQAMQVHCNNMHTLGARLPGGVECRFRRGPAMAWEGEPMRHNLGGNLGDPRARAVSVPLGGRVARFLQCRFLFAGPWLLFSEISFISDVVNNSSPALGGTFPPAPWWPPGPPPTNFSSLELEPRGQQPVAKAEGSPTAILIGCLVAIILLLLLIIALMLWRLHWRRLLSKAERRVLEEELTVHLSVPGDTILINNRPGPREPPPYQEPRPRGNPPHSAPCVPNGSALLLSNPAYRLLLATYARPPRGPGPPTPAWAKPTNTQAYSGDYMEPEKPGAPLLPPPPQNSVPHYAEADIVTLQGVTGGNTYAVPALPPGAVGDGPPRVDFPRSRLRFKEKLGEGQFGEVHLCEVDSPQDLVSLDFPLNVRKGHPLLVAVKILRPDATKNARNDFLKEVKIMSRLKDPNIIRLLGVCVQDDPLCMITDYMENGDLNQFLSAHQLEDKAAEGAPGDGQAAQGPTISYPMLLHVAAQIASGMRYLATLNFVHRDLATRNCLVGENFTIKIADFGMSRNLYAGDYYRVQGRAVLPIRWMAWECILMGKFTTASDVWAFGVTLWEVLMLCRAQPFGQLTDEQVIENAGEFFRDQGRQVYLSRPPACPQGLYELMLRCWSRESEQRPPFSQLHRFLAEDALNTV
UniProt Q9Y463, whole entry, looked up: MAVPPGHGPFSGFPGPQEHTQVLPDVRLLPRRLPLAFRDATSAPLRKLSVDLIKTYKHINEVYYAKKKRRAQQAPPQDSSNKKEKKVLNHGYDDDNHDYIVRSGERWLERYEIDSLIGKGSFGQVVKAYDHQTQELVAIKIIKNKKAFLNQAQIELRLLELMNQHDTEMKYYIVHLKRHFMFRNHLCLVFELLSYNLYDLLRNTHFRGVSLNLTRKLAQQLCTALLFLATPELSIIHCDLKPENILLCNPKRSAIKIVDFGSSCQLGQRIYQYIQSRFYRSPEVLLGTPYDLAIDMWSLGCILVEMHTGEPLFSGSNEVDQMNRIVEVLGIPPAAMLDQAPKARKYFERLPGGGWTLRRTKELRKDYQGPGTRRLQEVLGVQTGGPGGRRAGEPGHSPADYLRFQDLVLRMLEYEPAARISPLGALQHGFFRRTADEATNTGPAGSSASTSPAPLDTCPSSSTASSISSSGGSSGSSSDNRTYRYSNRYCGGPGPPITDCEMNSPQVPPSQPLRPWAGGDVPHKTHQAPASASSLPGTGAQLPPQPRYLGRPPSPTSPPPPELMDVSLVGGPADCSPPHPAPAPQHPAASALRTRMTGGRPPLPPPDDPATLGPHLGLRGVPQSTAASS

What was measured:
Assay in all cases: kinase-Nluc reporter destabilization hit call (1 = scored as downregulated) (binary); higher = compound decreases kinase abundance
Details in all cases: K562; 2-18 h
BRAF_V600E = system: BRAF_V600E
BTK = BTK (UniProt Q06187)
CAMK2A = CAMK2A (UniProt Q9UQM7)
CAMK2G = CAMK2G (UniProt Q13555)
CDK10 = CDK10 (UniProt Q15131)
CDK2 = CDK2 (UniProt P24941)
CDK3 = CDK3 (UniProt Q00526)
CDK4 = CDK4 (UniProt P11802)
CDK5 = CDK5 (UniProt Q00535)
CDK6 = CDK6 (UniProt Q00534)
CDK7 = CDK7 (UniProt P50613)
CDK9 = CDK9 (UniProt P50750)
CHEK2 = CHEK2 (UniProt O96017)
CSF1R = CSF1R (UniProt P07333)
CSK = CSK (UniProt P41240)
CSNK1A1 = CSNK1A1 (UniProt P48729)
CSNK1D = CSNK1D (UniProt P48730)
DDR1 = DDR1 (UniProt Q08345)
DYRK1B = DYRK1B (UniProt Q9Y463)
DYRK2 = DYRK2 (UniProt Q92630)

Measured: kinase-Nluc reporter destabilization hit call

CO[C@H]1C[C@@H]2CC[C@@H](C)[C@@](O)(O2)C(=O)C(=O)N2CCCC[C@H]2C(=O)O[C@H]([C@H](C)C[C@@H]2CC[C@@H](OC(=O)C(C)(CO)CO)[C@H](OC)C2)CC(=O)[C@H](C)/C=C(\C)[C@@H](O)[C@@H](OC)C(=O)[C@H](C)C[C@H](C)/C=C/C=C/C=C/1C [Temsirolimus] (2.5 µM)
inactive: BRAF_V600E 0 | BTK 0 | CAMK2A 0 | CAMK2G 0 | CDK10 = 0 | CDK2 = 0 | CDK3 = 0 | CDK4 = 0 | CDK5 = 0 | CDK6 = 0 | CDK7 = 0 | CDK9 = 0 | CHEK2 = 0 | CSF1R 0 | CSK 0 | CSNK1A1 = 0 | CSNK1D 0 | DDR1 = 0 | DYRK1B 0 | DYRK2 = 0

NC(=O)c1ccc(N(C(N)=O)c2c(F)cccc2F)nc1-c1ccc(F)cc1F (10 µM)
inactive: BRAF_V600E 0 | BTK 0 | CAMK2A 0 | CAMK2G 0 | CDK10 = 0 | CDK2 = 0 | CDK3 = 0 | CDK4 = 0 | CDK5 = 0 | CDK6 = 0 | CDK7 = 0 | CDK9 = 0 | CHEK2 = 0 | CSF1R 0 | CSK 0 | CSNK1A1 = 0 | CSNK1D 0 | DDR1 = 0 | DYRK1B 0 | DYRK2 = 0

COc1cc2ncnc(Nc3cccc(I)c3)c2cc1OC (2.5 µM)
inactive: BRAF_V600E 0 | BTK 0 | CAMK2A 0 | CAMK2G 0 | CDK10 = 0 | CDK2 = 0 | CDK3 = 0 | CDK4 = 0 | CDK5 = 0 | CDK6 = 0 | CDK7 = 0 | CDK9 = 0 | CHEK2 = 0 | CSF1R 0 | CSK 0 | CSNK1A1 = 0 | CSNK1D 0 | DDR1 = 0 | DYRK1B 0 | DYRK2 = 0

CC1(N)CCN(c2cccnc2NC(=O)c2nc(-c3ncccc3C(F)(F)F)cnc2N)CC1 [Darovasertib] (10 µM)
inactive: BRAF_V600E 0 | BTK 0 | CAMK2A 0 | CAMK2G 0 | CDK10 = 0 | CDK2 = 0 | CDK3 = 0 | CDK4 = 0 | CDK5 = 0 | CDK6 = 0 | CDK7 = 0 | CDK9 = 0 | CHEK2 = 0 | CSF1R 0 | CSK 0 | CSNK1A1 = 0 | CSNK1D 0 | DDR1 = 0 | DYRK1B 0 | DYRK2 = 0

Nc1ncnc2c1nc(Br)n2[C@@H]1O[C@@H]2COP(=O)(O)O[C@H]2[C@H]1O [8-Bromo-cAMP sodium salt] (10 µM)
inactive: BRAF_V600E 0 | BTK 0 | CAMK2A 0 | CAMK2G 0 | CDK10 = 0 | CDK2 = 0 | CDK3 = 0 | CDK4 = 0 | CDK5 = 0 | CDK6 = 0 | CDK7 = 0 | CDK9 = 0 | CHEK2 = 0 | CSF1R 0 | CSK 0 | CSNK1A1 = 0 | CSNK1D 0 | DDR1 = 0 | DYRK1B 0 | DYRK2 = 0

Cc1cc(O)c2c(c1)C(=O)c1cccc(O)c1C2=O [Chrysophanol] (2 µM)
inactive: BRAF_V600E 0 | BTK 0 | CAMK2A 0 | CAMK2G 0 | CDK10 = 0 | CDK2 = 0 | CDK3 = 0 | CDK4 = 0 | CDK5 = 0 | CDK6 = 0 | CDK7 = 0 | CDK9 = 0 | CHEK2 = 0 | CSF1R 0 | CSK 0 | CSNK1A1 = 0 | CSNK1D 0 | DDR1 = 0 | DYRK1B 0 | DYRK2 = 0

CCCCCC(=O)N[C@@H](Cc1ccc(O)cc1)C(=O)OC (10 µM)
inactive: BRAF_V600E 0 | BTK 0 | CAMK2A 0 | CAMK2G 0 | CDK10 = 0 | CDK2 = 0 | CDK3 = 0 | CDK4 = 0 | CDK5 = 0 | CDK6 = 0 | CDK7 = 0 | CDK9 = 0 | CHEK2 = 0 | CSF1R 0 | CSK 0 | CSNK1A1 = 0 | CSNK1D 0 | DDR1 = 0 | DYRK1B 0 | DYRK2 = 0

O=C(NCCO)c1cc(C(=O)NCCO)cc(C(=O)NCCO)c1 (10 µM)
inactive: BRAF_V600E 0 | BTK 0 | CAMK2A 0 | CAMK2G 0 | CDK10 = 0 | CDK2 = 0 | CDK3 = 0 | CDK4 = 0 | CDK5 = 0 | CDK6 = 0 | CDK7 = 0 | CDK9 = 0 | CHEK2 = 0 | CSF1R 0 | CSK 0 | CSNK1A1 = 0 | CSNK1D 0 | DDR1 = 0 | DYRK1B 0 | DYRK2 = 0

CCCCCc1ccc(/C=C/[C@H](O)[C@@H](CO)NC)cc1 [SK1-I (hydrochloride)] (10 µM)
inactive: BRAF_V600E 0 | BTK 0 | CAMK2A 0 | CAMK2G 0 | CDK10 = 0 | CDK2 = 0 | CDK3 = 0 | CDK4 = 0 | CDK5 = 0 | CDK6 = 0 | CDK7 = 0 | CDK9 = 0 | CHEK2 = 0 | CSF1R 0 | CSK 0 | CSNK1A1 = 0 | CSNK1D 0 | DDR1 = 0 | DYRK1B 0 | DYRK2 = 0

Cc1cccc(-c2[nH]ncc2-c2ccnc3ccccc23)n1 (10 µM)
inactive: BRAF_V600E 0 | BTK 0 | CAMK2A 0 | CAMK2G 0 | CDK10 = 0 | CDK2 = 0 | CDK3 = 0 | CDK4 = 0 | CDK5 = 0 | CDK6 = 0 | CDK7 = 0 | CDK9 = 0 | CHEK2 = 0 | CSF1R 0 | CSK 0 | CSNK1A1 = 0 | CSNK1D 0 | DDR1 = 0 | DYRK1B 0 | DYRK2 = 0

Sorted by formula weight (largest number first): part of the list above
CO[C@H]1C[C@@H]2CC[C@@H](C)[C@@](O)(O2)C(=O)C(=O)N2CCCC[C@H]2C(=O)O[C@H]([C@H](C)C[C@@H]2CC[C@@H](OC(=O)C(C)(CO)CO)[C@H](OC)C2)CC(=O)[C@H](C)/C=C(\C)[C@@H](O)[C@@H](OC)C(=O)[C@H](C)C[C@H](C)/C=C/C=C/C=C/1C [Temsirolimus] (2.5 µM)
inactive: BRAF_V600E 0 | BTK 0 | CAMK2A 0 | CAMK2G 0 | CDK10 = 0 | CDK2 = 0 | CDK3 = 0 | CDK4 = 0 | CDK5 = 0 | CDK6 = 0 | CDK7 = 0 | CDK9 = 0 | CHEK2 = 0 | CSF1R 0 | CSK 0 | CSNK1A1 = 0 | CSNK1D 0 | DDR1 = 0 | DYRK1B 0 | DYRK2 = 0

CC1(N)CCN(c2cccnc2NC(=O)c2nc(-c3ncccc3C(F)(F)F)cnc2N)CC1 [Darovasertib] (10 µM)
inactive: BRAF_V600E 0 | BTK 0 | CAMK2A 0 | CAMK2G 0 | CDK10 = 0 | CDK2 = 0 | CDK3 = 0 | CDK4 = 0 | CDK5 = 0 | CDK6 = 0 | CDK7 = 0 | CDK9 = 0 | CHEK2 = 0 | CSF1R 0 | CSK 0 | CSNK1A1 = 0 | CSNK1D 0 | DDR1 = 0 | DYRK1B 0 | DYRK2 = 0

COc1cc2ncnc(Nc3cccc(I)c3)c2cc1OC (2.5 µM)
inactive: BRAF_V600E 0 | BTK 0 | CAMK2A 0 | CAMK2G 0 | CDK10 = 0 | CDK2 = 0 | CDK3 = 0 | CDK4 = 0 | CDK5 = 0 | CDK6 = 0 | CDK7 = 0 | CDK9 = 0 | CHEK2 = 0 | CSF1R 0 | CSK 0 | CSNK1A1 = 0 | CSNK1D 0 | DDR1 = 0 | DYRK1B 0 | DYRK2 = 0

Cc1cccc(-c2[nH]ncc2-c2ccnc3ccccc23)n1 (10 µM)
inactive: BRAF_V600E 0 | BTK 0 | CAMK2A 0 | CAMK2G 0 | CDK10 = 0 | CDK2 = 0 | CDK3 = 0 | CDK4 = 0 | CDK5 = 0 | CDK6 = 0 | CDK7 = 0 | CDK9 = 0 | CHEK2 = 0 | CSF1R 0 | CSK 0 | CSNK1A1 = 0 | CSNK1D 0 | DDR1 = 0 | DYRK1B 0 | DYRK2 = 0

CCCCCc1ccc(/C=C/[C@H](O)[C@@H](CO)NC)cc1 [SK1-I (hydrochloride)] (10 µM)
inactive: BRAF_V600E 0 | BTK 0 | CAMK2A 0 | CAMK2G 0 | CDK10 = 0 | CDK2 = 0 | CDK3 = 0 | CDK4 = 0 | CDK5 = 0 | CDK6 = 0 | CDK7 = 0 | CDK9 = 0 | CHEK2 = 0 | CSF1R 0 | CSK 0 | CSNK1A1 = 0 | CSNK1D 0 | DDR1 = 0 | DYRK1B 0 | DYRK2 = 0

Carrying on.

C#Cc1cccc(Nc2ncnc3cc(OC)c(NC(=O)N4C[C@H]5CCN(C)[C@H]5C4)cc23)c1 [Theliatinib] (10 µM)
inactive: BRAF_V600E 0 | BTK 0 | CAMK2A 0 | CAMK2G 0 | CDK10 = 0 | CDK2 = 0 | CDK3 = 0 | CDK4 = 0 | CDK5 = 0 | CDK6 = 0 | CDK7 = 0 | CDK9 = 0 | CHEK2 = 0 | CSF1R 0 | CSK 0 | CSNK1A1 = 0 | CSNK1D 0 | DDR1 = 0 | DYRK1B 0 | DYRK2 = 0

COc1ccc(S(=O)(=O)Nc2cc(-c3c(O)ccc4ccccc34)c(O)c3ccccc23)cc1 (10 µM)
inactive: BRAF_V600E 0 | BTK 0 | CAMK2A 0 | CAMK2G 0 | CDK10 = 0 | CDK2 = 0 | CDK3 = 0 | CDK4 = 0 | CDK5 = 0 | CDK6 = 0 | CDK7 = 0 | CDK9 = 0 | CHEK2 = 0 | CSF1R 0 | CSK 0 | CSNK1A1 = 0 | CSNK1D 0 | DDR1 = 0 | DYRK1B 0 | DYRK2 = 0

CC(C)[C@H](CO)Nc1nc(Nc2cccc(Cl)c2)c2ncn(C(C)C)c2n1 [Purvalanol A] (10 µM)
active: DDR1 = 1
inactive: BRAF_V600E 0 | BTK 0 | CAMK2A 0 | CAMK2G 0 | CDK10 = 0 | CDK2 = 0 | CDK3 = 0 | CDK4 = 0 | CDK5 = 0 | CDK6 = 0 | CDK7 = 0 | CDK9 = 0 | CHEK2 = 0 | CSF1R 0 | CSK 0 | CSNK1A1 = 0 | CSNK1D 0 | DYRK1B 0 | DYRK2 = 0

CC(C)=CCC/C(C)=C/CC/C(C)=C/C=C/C(C)=C/C(=O)O [Peretinoin] (10 µM)
inactive: BRAF_V600E 0 | BTK 0 | CAMK2A 0 | CAMK2G 0 | CDK10 = 0 | CDK2 = 0 | CDK3 = 0 | CDK4 = 0 | CDK5 = 0 | CDK6 = 0 | CDK7 = 0 | CDK9 = 0 | CHEK2 = 0 | CSF1R 0 | CSK 0 | CSNK1A1 = 0 | CSNK1D 0 | DDR1 = 0 | DYRK1B 0 | DYRK2 = 0

CC(Cc1ccc(O)c(O)c1)C(C)Cc1ccc(O)c(O)c1 (stereo not given) [Nordihydroguaiaretic acid] (2.5 µM)
inactive: BRAF_V600E 0 | BTK 0 | CAMK2A 0 | CAMK2G 0 | CDK10 = 0 | CDK2 = 0 | CDK3 = 0 | CDK4 = 0 | CDK5 = 0 | CDK6 = 0 | CDK7 = 0 | CDK9 = 0 | CHEK2 = 0 | CSF1R 0 | CSK 0 | CSNK1A1 = 0 | CSNK1D 0 | DDR1 = 0 | DYRK1B 0 | DYRK2 = 0

Cc1cccc(COc2cccc(/C=C3\C(=O)NN(c4ccccc4)C3=O)c2)c1 (10 µM)
inactive: BRAF_V600E 0 | BTK 0 | CAMK2A 0 | CAMK2G 0 | CDK10 = 0 | CDK2 = 0 | CDK3 = 0 | CDK4 = 0 | CDK5 = 0 | CDK6 = 0 | CDK7 = 0 | CDK9 = 0 | CHEK2 = 0 | CSF1R 0 | CSK 0 | CSNK1A1 = 0 | CSNK1D 0 | DDR1 = 0 | DYRK1B 0 | DYRK2 = 0

Cc1nc[nH]c1CN1CCN(C(=O)N[C@@H](CC(C)C)C(=O)O)[C@@H](Cc2ccccc2)C1=O (10 µM)
inactive: BRAF_V600E 0 | BTK 0 | CAMK2A 0 | CAMK2G 0 | CDK10 = 0 | CDK2 = 0 | CDK3 = 0 | CDK4 = 0 | CDK5 = 0 | CDK6 = 0 | CDK7 = 0 | CDK9 = 0 | CHEK2 = 0 | CSF1R 0 | CSK 0 | CSNK1A1 = 0 | CSNK1D 0 | DDR1 = 0 | DYRK1B 0 | DYRK2 = 0

C=CC(=O)Nc1cccc(Oc2nc(Nc3ccc(N4CCN(C)CC4)c(F)c3)nc3[nH]ccc23)c1 [Avitinib (maleate)] (2.5 µM)
inactive: BRAF_V600E 0 | BTK 0 | CAMK2A 0 | CAMK2G 0 | CDK10 = 0 | CDK2 = 0 | CDK3 = 0 | CDK4 = 0 | CDK5 = 0 | CDK6 = 0 | CDK7 = 0 | CDK9 = 0 | CHEK2 = 0 | CSF1R 0 | CSK 0 | CSNK1A1 = 0 | CSNK1D 0 | DDR1 = 0 | DYRK1B 0 | DYRK2 = 0
